{
  "source": "patent US7354912B2",
  "about": "“Unique compositions of zwitterionic phospholipids and bisphosphonates and use of the compositions as bisphosphate delivery systems with reduced GI toxicity” (Board of Reagents, University of Texas System, priority 2000, dated 2008)",
  "key": {"gastric mucosa [1]": {"tested_on": "gastric mucosa", "assay": "acute bisphosphonate/indomethacin gastric injury model of Blank et al. (gastric lesion score, gastric bleeding)", "assay_type": "in vivo, rat", "details": "rats, comparison of three bisphosphonates", "text": "The experiments investigated the effects of different bisphosphonates on the surface hydrophobicity and phospholipid concentration of the antral mucosa, using the animal model of Blank et. al. (Blank M A, Ems B L, Gibson G W, Myers W R, Berman S K, Phipps R J, Smith P N, Dig Dis Sci, 42, 281-288 (1997)), and compared the effects of these surface changes to the gastric toxicity of these drugs.\nLooking at FIG. 2, an antrum lesion score is plotted against time.\nThe model and the ability for phospholipids to inhibit bisphosphonate GI toxicity was investigated in pilot preclinical studies using the rodent model of Blank et. al. (Blank M A, Ems B L, Gibson G W, Myers W R, Berman S K, Phipps R J, Smith P N, Dig Dis Sci, 42, 281-288 (1997)), where the bisphosphonate test drug was administered simultaneously with indomethacin.\n60 mg of Phospholipon 90G (90-93% pure PC) was dissolved in chloroform in a tube. […] The organic solvent was removed under nitrogen and resulting PC material was left under vacuum overnight to form a PC film in the tube. […] The solution was then added to the dried PC film in the tube. The mixture was sonicated in a both type sonicator at room temperature for 5 min., prior to administration to fasted rats.\n20 mg of dipalmitoyl PC (DPPC) and Phospholipon 90 G were dissolved in chloroform in separate tubes, and dried as described in Example 1. […]"}, "gastric mucosa [2]": {"tested_on": "gastric mucosa", "details": "rats, intragastric high doses, with indomethacin; cited from earlier work"}},
  "data": [
    {"smiles": "NCCCC(O)(P(=O)(O)O)P(=O)(O)O", "note": "[alendronate, 4-amino-1-hydroxybutylidene-1,1-bisphosphonic acid]", "values": [
      {"measurement": "order of gastrotoxicity (FIG. 4)", "setting": "gastric mucosa [1]", "value": "pamidronate>>alendronate>risedronate"},
      {"measurement": "irritation of the gastric mucosa (comparison of bisphosphonates)", "setting": "gastric mucosa [2]", "value": "more irritating"}
    ]}
  ]
}
